Experimental data published in the supplement of paper PMC10849652.
The other results are listed elsewhere or left out.

Amino acid sequences for entries named in this document (tags omitted). A change or cut given only in a name is not applied to a line headed by its entry.
UniProt P15336: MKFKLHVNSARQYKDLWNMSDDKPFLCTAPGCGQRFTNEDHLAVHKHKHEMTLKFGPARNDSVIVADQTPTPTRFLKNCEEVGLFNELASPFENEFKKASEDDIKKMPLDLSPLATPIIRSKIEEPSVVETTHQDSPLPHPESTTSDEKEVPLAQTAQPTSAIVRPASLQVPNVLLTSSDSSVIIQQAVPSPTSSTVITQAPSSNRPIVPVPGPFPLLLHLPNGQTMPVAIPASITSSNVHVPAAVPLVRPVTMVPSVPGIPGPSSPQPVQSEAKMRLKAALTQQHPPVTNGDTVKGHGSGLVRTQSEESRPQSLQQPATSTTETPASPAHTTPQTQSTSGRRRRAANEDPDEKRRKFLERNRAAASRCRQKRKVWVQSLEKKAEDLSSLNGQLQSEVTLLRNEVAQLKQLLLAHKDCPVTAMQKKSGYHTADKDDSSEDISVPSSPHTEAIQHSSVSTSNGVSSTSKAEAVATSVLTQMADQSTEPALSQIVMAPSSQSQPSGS
UniProt P56381: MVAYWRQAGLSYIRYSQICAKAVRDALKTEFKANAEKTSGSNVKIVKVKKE
UniProt Q04656: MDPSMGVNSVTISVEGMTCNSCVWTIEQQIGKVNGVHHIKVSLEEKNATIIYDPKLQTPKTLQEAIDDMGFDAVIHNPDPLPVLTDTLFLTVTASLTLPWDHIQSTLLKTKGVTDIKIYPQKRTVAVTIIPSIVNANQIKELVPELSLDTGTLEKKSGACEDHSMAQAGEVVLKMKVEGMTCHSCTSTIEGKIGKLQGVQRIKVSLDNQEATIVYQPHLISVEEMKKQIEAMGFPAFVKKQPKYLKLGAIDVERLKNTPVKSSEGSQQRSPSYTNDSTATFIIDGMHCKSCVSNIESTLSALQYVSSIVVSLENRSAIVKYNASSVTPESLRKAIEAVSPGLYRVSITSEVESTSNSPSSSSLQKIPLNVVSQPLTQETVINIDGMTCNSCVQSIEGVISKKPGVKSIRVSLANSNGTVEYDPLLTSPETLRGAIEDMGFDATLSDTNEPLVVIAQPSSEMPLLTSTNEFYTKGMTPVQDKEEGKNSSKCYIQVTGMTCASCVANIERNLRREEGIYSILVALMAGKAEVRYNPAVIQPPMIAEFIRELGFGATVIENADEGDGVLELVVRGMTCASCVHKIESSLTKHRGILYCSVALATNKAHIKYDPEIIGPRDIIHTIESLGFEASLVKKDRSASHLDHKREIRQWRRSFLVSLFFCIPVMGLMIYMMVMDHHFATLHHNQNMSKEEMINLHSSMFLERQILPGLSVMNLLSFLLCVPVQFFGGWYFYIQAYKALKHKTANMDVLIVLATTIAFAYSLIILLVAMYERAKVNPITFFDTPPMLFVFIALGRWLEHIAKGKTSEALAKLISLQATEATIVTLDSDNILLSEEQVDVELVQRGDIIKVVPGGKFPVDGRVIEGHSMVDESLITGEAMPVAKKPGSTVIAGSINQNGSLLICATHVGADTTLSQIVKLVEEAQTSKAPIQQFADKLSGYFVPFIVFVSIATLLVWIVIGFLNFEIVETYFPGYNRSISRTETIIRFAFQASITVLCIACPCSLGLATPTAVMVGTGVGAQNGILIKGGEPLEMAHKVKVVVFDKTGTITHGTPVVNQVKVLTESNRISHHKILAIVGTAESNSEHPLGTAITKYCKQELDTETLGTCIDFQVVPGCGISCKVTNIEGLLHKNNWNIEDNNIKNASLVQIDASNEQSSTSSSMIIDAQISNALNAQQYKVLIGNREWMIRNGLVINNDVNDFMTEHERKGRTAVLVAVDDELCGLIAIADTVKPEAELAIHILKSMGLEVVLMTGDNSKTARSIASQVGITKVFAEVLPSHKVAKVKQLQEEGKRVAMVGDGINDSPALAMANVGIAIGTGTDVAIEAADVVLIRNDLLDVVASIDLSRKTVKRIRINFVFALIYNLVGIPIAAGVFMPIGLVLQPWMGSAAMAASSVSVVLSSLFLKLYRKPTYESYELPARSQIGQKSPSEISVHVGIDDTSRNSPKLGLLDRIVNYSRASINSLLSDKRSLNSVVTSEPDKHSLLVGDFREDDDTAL
UniProt P20020: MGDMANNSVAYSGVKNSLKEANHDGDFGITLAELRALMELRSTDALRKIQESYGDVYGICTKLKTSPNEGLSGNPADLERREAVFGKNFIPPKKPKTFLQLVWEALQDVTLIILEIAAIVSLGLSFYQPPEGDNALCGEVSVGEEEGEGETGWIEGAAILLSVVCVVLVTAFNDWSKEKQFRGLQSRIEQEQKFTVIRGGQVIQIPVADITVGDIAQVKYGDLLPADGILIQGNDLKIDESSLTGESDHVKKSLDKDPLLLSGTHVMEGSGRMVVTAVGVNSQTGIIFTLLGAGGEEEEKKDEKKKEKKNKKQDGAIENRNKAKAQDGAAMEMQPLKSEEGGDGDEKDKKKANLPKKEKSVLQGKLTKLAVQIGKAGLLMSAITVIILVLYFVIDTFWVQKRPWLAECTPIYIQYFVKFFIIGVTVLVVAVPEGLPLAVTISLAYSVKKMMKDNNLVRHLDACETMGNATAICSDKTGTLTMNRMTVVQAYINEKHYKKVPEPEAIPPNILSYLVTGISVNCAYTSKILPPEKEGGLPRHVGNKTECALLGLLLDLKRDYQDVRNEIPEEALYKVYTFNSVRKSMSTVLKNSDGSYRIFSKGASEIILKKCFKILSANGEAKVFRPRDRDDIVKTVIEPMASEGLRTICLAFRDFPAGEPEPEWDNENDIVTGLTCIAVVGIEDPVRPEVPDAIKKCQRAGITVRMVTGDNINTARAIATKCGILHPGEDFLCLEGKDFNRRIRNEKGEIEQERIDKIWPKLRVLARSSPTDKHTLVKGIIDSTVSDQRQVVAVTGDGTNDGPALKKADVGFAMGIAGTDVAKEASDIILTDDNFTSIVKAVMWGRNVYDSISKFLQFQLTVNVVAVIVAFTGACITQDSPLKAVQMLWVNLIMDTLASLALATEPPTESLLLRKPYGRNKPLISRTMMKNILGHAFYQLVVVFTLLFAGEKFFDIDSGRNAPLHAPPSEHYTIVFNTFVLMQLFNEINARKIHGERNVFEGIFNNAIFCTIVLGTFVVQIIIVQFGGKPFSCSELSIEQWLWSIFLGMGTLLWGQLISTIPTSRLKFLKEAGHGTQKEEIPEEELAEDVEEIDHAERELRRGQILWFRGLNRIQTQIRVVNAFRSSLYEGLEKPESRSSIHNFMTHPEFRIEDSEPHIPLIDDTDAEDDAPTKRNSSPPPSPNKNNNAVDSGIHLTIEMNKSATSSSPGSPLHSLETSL
UniProt Q9Y2G3: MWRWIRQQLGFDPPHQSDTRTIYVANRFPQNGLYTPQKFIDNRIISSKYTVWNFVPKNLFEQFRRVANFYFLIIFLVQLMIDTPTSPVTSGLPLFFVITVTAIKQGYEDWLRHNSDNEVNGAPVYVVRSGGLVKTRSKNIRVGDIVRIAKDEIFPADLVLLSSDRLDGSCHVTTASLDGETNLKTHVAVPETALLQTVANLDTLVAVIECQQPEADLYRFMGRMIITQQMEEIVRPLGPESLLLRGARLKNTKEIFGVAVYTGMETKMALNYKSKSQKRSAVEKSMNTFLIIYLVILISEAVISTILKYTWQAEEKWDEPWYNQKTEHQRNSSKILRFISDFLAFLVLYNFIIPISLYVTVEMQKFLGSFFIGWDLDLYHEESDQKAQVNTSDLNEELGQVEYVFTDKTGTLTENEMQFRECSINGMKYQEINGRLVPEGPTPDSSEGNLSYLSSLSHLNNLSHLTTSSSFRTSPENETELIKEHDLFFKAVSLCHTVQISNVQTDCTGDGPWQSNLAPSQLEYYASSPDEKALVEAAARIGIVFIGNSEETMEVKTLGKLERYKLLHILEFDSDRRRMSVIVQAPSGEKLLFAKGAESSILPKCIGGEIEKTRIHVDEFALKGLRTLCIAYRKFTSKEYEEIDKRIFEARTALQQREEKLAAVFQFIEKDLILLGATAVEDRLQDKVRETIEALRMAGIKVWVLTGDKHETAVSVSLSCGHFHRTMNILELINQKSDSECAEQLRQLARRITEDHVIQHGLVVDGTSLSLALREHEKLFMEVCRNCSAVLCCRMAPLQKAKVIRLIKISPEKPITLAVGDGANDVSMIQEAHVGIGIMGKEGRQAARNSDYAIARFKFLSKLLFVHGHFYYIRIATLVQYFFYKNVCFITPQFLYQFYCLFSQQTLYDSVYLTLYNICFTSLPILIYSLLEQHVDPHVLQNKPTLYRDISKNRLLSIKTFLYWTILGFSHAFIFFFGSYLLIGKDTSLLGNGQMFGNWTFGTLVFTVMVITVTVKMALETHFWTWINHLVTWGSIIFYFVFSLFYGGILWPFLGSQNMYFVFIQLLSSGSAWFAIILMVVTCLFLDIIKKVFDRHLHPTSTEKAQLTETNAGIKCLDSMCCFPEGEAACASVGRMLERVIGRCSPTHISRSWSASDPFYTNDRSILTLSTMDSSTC
UniProt Q9NT62, whole entry, looked up: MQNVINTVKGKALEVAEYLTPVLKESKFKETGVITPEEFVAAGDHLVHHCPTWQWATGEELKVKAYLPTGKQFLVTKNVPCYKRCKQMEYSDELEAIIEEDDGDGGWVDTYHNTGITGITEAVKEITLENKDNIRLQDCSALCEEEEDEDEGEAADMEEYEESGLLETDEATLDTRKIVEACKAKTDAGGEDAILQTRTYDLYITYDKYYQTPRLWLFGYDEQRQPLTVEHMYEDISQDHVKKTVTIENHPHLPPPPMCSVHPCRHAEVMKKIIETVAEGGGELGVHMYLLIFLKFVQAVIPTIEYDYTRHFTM
UniProt Q9Y487, whole entry, looked up: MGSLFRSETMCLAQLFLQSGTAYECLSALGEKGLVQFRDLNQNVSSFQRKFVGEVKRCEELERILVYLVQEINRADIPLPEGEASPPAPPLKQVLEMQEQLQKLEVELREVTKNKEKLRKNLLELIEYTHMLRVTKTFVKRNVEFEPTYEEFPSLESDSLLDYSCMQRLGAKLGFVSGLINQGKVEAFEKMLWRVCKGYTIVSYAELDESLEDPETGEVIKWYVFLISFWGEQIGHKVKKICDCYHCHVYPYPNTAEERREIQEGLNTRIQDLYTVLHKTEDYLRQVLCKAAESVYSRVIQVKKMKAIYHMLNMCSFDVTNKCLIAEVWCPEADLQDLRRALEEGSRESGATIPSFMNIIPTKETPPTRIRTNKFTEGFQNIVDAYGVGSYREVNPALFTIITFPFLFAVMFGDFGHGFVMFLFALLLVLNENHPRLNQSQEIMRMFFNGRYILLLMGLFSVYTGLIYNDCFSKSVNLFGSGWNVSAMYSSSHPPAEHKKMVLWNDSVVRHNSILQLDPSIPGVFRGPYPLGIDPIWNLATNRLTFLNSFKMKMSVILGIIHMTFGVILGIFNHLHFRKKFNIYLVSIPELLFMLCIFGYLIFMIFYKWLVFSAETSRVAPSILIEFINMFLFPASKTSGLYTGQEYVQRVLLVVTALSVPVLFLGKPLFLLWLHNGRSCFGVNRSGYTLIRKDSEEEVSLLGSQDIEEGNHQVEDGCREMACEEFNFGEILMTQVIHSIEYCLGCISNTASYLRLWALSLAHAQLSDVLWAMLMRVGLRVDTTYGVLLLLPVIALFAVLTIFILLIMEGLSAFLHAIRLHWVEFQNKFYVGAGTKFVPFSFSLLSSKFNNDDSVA
UniProt Q9H1Y0: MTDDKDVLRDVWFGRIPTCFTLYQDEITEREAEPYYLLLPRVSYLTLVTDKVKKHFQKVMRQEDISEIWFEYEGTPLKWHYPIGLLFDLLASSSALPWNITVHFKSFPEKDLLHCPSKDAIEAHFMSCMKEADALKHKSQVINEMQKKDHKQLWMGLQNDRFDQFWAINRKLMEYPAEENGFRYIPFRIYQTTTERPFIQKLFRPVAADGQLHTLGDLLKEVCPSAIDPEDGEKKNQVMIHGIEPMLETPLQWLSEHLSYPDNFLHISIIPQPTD
UniProt P30049: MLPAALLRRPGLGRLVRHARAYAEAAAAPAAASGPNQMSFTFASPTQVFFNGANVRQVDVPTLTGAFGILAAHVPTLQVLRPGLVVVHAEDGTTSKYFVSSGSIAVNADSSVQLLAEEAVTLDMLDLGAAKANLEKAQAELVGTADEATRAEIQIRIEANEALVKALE
UniProt Q9NY97: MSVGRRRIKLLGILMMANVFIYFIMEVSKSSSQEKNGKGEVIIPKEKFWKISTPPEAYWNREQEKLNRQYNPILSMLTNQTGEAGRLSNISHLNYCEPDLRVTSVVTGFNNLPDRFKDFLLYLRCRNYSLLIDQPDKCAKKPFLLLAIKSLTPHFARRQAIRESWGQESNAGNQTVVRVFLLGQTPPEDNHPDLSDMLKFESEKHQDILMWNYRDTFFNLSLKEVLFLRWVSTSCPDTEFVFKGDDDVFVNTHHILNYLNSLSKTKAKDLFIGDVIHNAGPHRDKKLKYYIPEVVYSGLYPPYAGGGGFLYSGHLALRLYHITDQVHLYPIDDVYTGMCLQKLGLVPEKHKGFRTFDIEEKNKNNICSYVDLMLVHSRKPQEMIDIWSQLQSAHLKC

Tests used:
Assay in all cases: log2 fold change, soluble protein after heating vs DMSO (PISA); higher = thermal stabilisation; K562 lysate, 10 uM; active = over 0.2 and 3.5 SD of the protein, either way, in both replicates (recomputed)
lapatinib = compound: CS(=O)(=O)CCNCc1ccc(-c2ccc3ncnc(Nc4ccc(OCc5cccc(F)c5)c(Cl)c4)c3c2)o1 [lapatinib]
Procedure, shortened: (§1)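 The values are log-two fold changes in thermal stability compared with solvent controls and come from duplicates. They were obtained by TMTpro 16plex LC-MS/MS, with channel sums equalised, on the supernatant after 21,000xg for 90 min. That supernatant came from crude K562 extract at 1 mg/mL protein treated with 10 μM compound for 30 min, heated for 3 min across 48°C-58°C, pooled and brought to 0.5% NP-40 at 4°C.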

pictilisib = compound: CS(=O)(=O)N1CCN(Cc2cc3nc(-c4cccc5[nH]ncc45)nc(N4CCOCC4)c3s2)CC1 [pictilisib]
Procedure, shortened: as §1

crizotinib = compound: C[C@@H](Oc1cc(-c2cnn(C3CCNCC3)c2)cnc1N)c1c(Cl)ccc(F)c1Cl [crizotinib]
Procedure, shortened: as §1

[1] = compound: C[C@H](C1=CC=C(C=C1)C(=O)NC2=C3C=CNC3=NC=C2)N
Procedure, shortened: as §1

duvelisib = compound: C[C@H](Nc1ncnc2nc[nH]c12)c1cc2cccc(Cl)c2c(=O)n1-c1ccccc1 [duvelisib]
Procedure, shortened: as §1

gandotinib = compound: Cc1cc(Nc2cc(CN3CCOCC3)c3nc(C)c(Cc4ccc(Cl)cc4F)n3n2)n[nH]1 [gandotinib]
Procedure, shortened: as §1

tozasertib = compound: Cc1cc(Nc2cc(N3CCN(C)CC3)nc(Sc3ccc(NC(=O)C4CC4)cc3)n2)n[nH]1 [tozasertib]
Procedure, shortened: as §1

doramapimod = compound: Cc1ccc(-n2nc(C(C)(C)C)cc2NC(=O)Nc2ccc(OCCN3CCOCC3)c3ccccc23)cc1 [doramapimod]
Procedure, shortened: as §1

bafetinib = compound: Cc1ccc(NC(=O)c2ccc(CN3CC[C@H](N(C)C)C3)c(C(F)(F)F)c2)cc1Nc1nccc(-c2cncnc2)n1 [bafetinib]
Procedure, shortened: as §1

[2] = compound: Cc1cccc(CC(=O)N2CCc3c2ccc(-c2cn(C)c4ncnc(N)c24)c3F)n1
Procedure, shortened: as §1

nilotinib = compound: Cc1cn(-c2cc(NC(=O)c3ccc(C)c(Nc4nccc(-c5cccnc5)n4)c3)cc(C(F)(F)F)c2)cn1 [nilotinib]
Procedure, shortened: as §1

[3] = compound: Cc1nc(Nc2n[nH]c3c2CN(C(=O)N[C@H](CN(C)C)c2ccccc2)C3(C)C)c2sccc2n1
Procedure, shortened: as §1

dasatinib = compound: Cc1nc(Nc2ncc(C(=O)Nc3c(C)cccc3Cl)s2)cc(N2CCN(CCO)CC2)n1 [dasatinib]
Procedure, shortened: as §1

[4] = compound: Cc1ncc(-c2ccnc(Nc3ccc(S(C)(=O)=O)cc3)n2)n1C(C)C
Procedure, shortened: as §1

[5] = compound: Cn1cc(-c2ccc3c(c2)CCN3C(=O)Cc2cccc(C(F)(F)F)c2)c2c(N)ncnc21
Procedure, shortened: as §1

quisinostat = compound: Cn1cc(CNCC2CCN(c3ncc(C(=O)NO)cn3)CC2)c2ccccc21 [quisinostat]
Procedure, shortened: as §1

tipifarnib = compound: Cn1cncc1[C@@](N)(c1ccc(Cl)cc1)c1ccc2c(c1)c(-c1cccc(Cl)c1)cc(=O)n2C [tipifarnib]
Procedure, shortened: as §1

[6] = compound: NC(=O)Nc1cc(-c2cccc(F)c2)sc1C(=O)N[C@H]1CCCNC1
Procedure, shortened: as §1

[7] = compound: NC(=O)c1cnc(N[C@@H]2CCCC[C@@H]2N)nc1Nc1cccc(-n2nccn2)c1
Procedure, shortened: as §1

[8] = compound: NC1(c2ccc(-c3nc4ccn5c(=O)[nH]nc5c4cc3-c3ccccc3)cc2)CCC1
Procedure, shortened: as §1

Measured: log2 fold change

ATF2 (UniProt P15336)
inactive: lapatinib -0.02 | pictilisib -0.007 | crizotinib -0.007 | [1] 0.164 | duvelisib -0.019 | gandotinib -0.057 | tozasertib 0.01 | doramapimod 0.016 | bafetinib 0.087 | [2] -0.059 | nilotinib -0.091 | [3] 0.107 | dasatinib 0.056 | [4] 0.225 | [5] 0.026 | quisinostat 0.013 | tipifarnib 0.02 | [6] -0.006 | [7] -0.07 | [8] 0.022

ATP13A1 (UniProt Q9HD20)
inactive: lapatinib -0.115 | pictilisib -0.011 | crizotinib 0.123 | [1] 0.047 | duvelisib -0.004 | gandotinib -0.073 | tozasertib 0.068 | doramapimod -0.053 | bafetinib -0.033 | [2] 0.043 | nilotinib 0.009 | [3] 0.004 | dasatinib 0.102 | [4] 0.003 | [5] 0.005 | quisinostat 0.001 | tipifarnib -0.109 | [6] -0.044 | [7] 0.07 | [8] 0.065

ATP5F1E (UniProt P56381)
inactive: lapatinib 0.019 | pictilisib 0.065 | crizotinib 0.039 | [1] 0.013 | duvelisib 0.02 | gandotinib 0.006 | tozasertib 0.025 | doramapimod 0.131 | bafetinib 0.063 | [2] 0.023 | nilotinib -0.037 | [3] 0.075 | dasatinib 0.047 | [4] 0.061 | [5] 0.027 | quisinostat -0.033 | tipifarnib -0.057 | [6] -0.053 | [7] 0.032 | [8] -0.028

ATP5MF-PTCD1 (UniProt G3V325)
inactive: lapatinib -0.025 | pictilisib 0.004 | crizotinib 0.016 | [1] -0.032 | duvelisib 0.042 | gandotinib 0.022 | tozasertib 0.007 | doramapimod -0.019 | bafetinib -0.023 | [2] 0.024 | nilotinib 0.03 | [3] -0.043 | dasatinib 0.051 | [4] 0.007 | [5] 0.031 | quisinostat -0.003 | tipifarnib -0.026 | [6] 0.013 | [7] -0.042 | [8] 0.037

ATP7A isoform 3 (UniProt Q04656)
inactive: lapatinib -0.034 | pictilisib -0.029 | crizotinib -0.005 | [1] -0.035 | duvelisib -0.007 | gandotinib -0.002 | tozasertib 0.011 | doramapimod 0.008 | bafetinib 0.022 | [2] 0.012 | nilotinib 0.011 | [3] 0.065 | dasatinib -0.007 | [4] 0.036 | [5] 0.045 | quisinostat -0.041 | tipifarnib -0.002 | [6] 0.007 | [7] 0.01 | [8] 0.012

ASXL1 (UniProt Q8IXJ9)
inactive: lapatinib 0.021 | pictilisib 0.167 | crizotinib -0.004 | [1] -0.066 | duvelisib -0.026 | gandotinib 0.49 | tozasertib 0.011 | doramapimod 0.01 | bafetinib 0.06 | [2] -0.035 | nilotinib -0.055 | [3] -0.051 | dasatinib 0.084 | [4] 0.021 | [5] 0.003 | quisinostat -0.013 | tipifarnib -0.073 | [6] 0.008 | [7] 0.031 | [8] -0.02

ATP2B4 (UniProt P23634)
inactive: lapatinib -0.022 | pictilisib -0.018 | crizotinib 0.018 | [1] -0.166 | duvelisib 0.053 | gandotinib 0.082 | tozasertib 0.046 | doramapimod 0.049 | bafetinib -0.125 | nilotinib -0.05 | [3] 0.098 | dasatinib -0.031 | [4] 0.003 | [5] 0.021 | quisinostat 0.164 | tipifarnib -0.028 | [6] -0.019 | [7] 0.019 | [8] 0.008
active: [2] 0.221

ASH2L (UniProt Q9UBL3)
inactive: lapatinib 0.014 | pictilisib -0.024 | crizotinib 0.006 | [1] -0.017 | duvelisib -0.011 | gandotinib -0.019 | tozasertib 0.003 | doramapimod 0.033 | bafetinib -0.018 | [2] 0.031 | nilotinib 0.009 | [3] -0.036 | dasatinib 0.03 | [4] -0.014 | [5] 0.015 | quisinostat -0.011 | tipifarnib 0.016 | [6] -0.002 | [7] -0.002 | [8] 0.006

ATP2B1 isoform 1 (UniProt P20020)
inactive: lapatinib -0.041 | pictilisib -0.027 | crizotinib -0.013 | [1] -0.053 | duvelisib 0.019 | gandotinib 0.007 | tozasertib 0.013 | doramapimod -0.005 | bafetinib -0.022 | [2] 0.041 | nilotinib -0.014 | [3] 0.041 | dasatinib -0.02 | [4] 0.01 | [5] -0.004 | quisinostat -0.003 | tipifarnib -0.008 | [6] 0.008 | [7] 0.016 | [8] -0.013

ATP11B (UniProt Q9Y2G3)
inactive: lapatinib -0.023 | pictilisib -0.018 | crizotinib 0.029 | [1] -0.209 | duvelisib 0.03 | gandotinib 0.061 | tozasertib 0.027 | doramapimod -0.019 | bafetinib -0.033 | [2] 0.061 | nilotinib 0.043 | [3] 0.001 | dasatinib 0.008 | [4] 0.011 | [5] -0.007 | quisinostat 0.021 | tipifarnib 0.012 | [6] 0.005 | [7] -0.01 | [8] 0.009

ATG3 (UniProt Q9NT62)
inactive: lapatinib 0.001 | pictilisib 0.024 | crizotinib -0.024 | [1] -0.039 | duvelisib 0.02 | gandotinib 0.016 | tozasertib 0.037 | doramapimod -0.012 | bafetinib -0.04 | [2] 0.008 | nilotinib -0.014 | [3] 0.024 | dasatinib 0.004 | [4] -0.018 | [5] 0.013 | quisinostat 0.068 | tipifarnib 0.025 | [6] -0.012 | [7] 0 | [8] 0.025

ATP6V0A2 (UniProt Q9Y487)
inactive: lapatinib -0.07 | pictilisib -0.047 | crizotinib -0.016 | duvelisib 0.026 | gandotinib 0.108 | tozasertib 0.004 | doramapimod 0.023 | bafetinib -0.046 | [2] 0.13 | nilotinib 0.034 | [3] -0.008 | dasatinib -0.028 | [4] 0.027 | [5] 0.003 | quisinostat -0.065 | tipifarnib -0.033 | [6] -0.011 | [7] 0.001 | [8] -0.001
active: [1] -0.227

ATG5 (UniProt Q9H1Y0)
inactive: lapatinib 0.009 | pictilisib 0.025 | crizotinib -0.006 | [1] -0.033 | duvelisib 0.056 | gandotinib 0.001 | tozasertib -0.008 | doramapimod 0.005 | bafetinib -0.009 | [2] -0.02 | nilotinib 0.011 | [3] -0.024 | dasatinib -0.011 | [4] -0.063 | [5] 0 | quisinostat -0.009 | tipifarnib -0.013 | [6] -0.01 | [7] 0.006 | [8] 0.017

ATP5F1D (UniProt P30049)
inactive: lapatinib 0.01 | pictilisib 0.005 | crizotinib 0.006 | [1] 0.054 | duvelisib -0.022 | gandotinib -0.018 | tozasertib 0.063 | doramapimod 0.044 | bafetinib 0.016 | [2] 0.042 | nilotinib 0.025 | [3] -0.015 | dasatinib -0.023 | [4] 0.04 | [5] 0.008 | quisinostat -0.085 | tipifarnib -0.059 | [6] -0.028 | [7] -0.04 | [8] 0.034

2 neighbouring entries from above:
ATG3 (UniProt Q9NT62)
inactive: lapatinib 0.001 | pictilisib 0.024 | crizotinib -0.024 | [1] -0.039 | duvelisib 0.02 | gandotinib 0.016 | tozasertib 0.037 | doramapimod -0.012 | bafetinib -0.04 | [2] 0.008 | nilotinib -0.014 | [3] 0.024 | dasatinib 0.004 | [4] -0.018 | [5] 0.013 | quisinostat 0.068 | tipifarnib 0.025 | [6] -0.012 | [7] 0 | [8] 0.025

ATP6V0A2 (UniProt Q9Y487)
inactive: lapatinib -0.07 | pictilisib -0.047 | crizotinib -0.016 | duvelisib 0.026 | gandotinib 0.108 | tozasertib 0.004 | doramapimod 0.023 | bafetinib -0.046 | [2] 0.13 | nilotinib 0.034 | [3] -0.008 | dasatinib -0.028 | [4] 0.027 | [5] 0.003 | quisinostat -0.065 | tipifarnib -0.033 | [6] -0.011 | [7] 0.001 | [8] -0.001
active: [1] -0.227

Later entries

B3GNT2 (UniProt Q9NY97)
inactive: lapatinib 0.036 | pictilisib -0.009 | crizotinib 0.005 | [1] -0.003 | duvelisib -0.009 | gandotinib 0.016 | tozasertib -0.008 | doramapimod -0.029 | bafetinib 0.018 | [2] 0.078 | nilotinib 0.034 | [3] -0.1 | dasatinib -0.02 | [4] -0.036 | [5] 0.059 | quisinostat 0.014 | tipifarnib -0.027 | [6] 0.016 | [7] -0.046 | [8] 0.084

AUP1 (UniProt Q9Y679)
inactive: lapatinib 0.106 | pictilisib 0.037 | crizotinib -0.094 | [1] -0.023 | duvelisib 0.07 | gandotinib -0.156 | tozasertib -0.032 | doramapimod -0.117 | bafetinib -0.073 | [2] 0.124 | nilotinib -0.007 | [3] -0.019 | dasatinib -0.015 | [4] 0.067 | [5] 0.038 | quisinostat 0.245 | tipifarnib 0.048 | [6] -0.024 | [7] -0.07 | [8] 0
